Substitutions are numbered along the chain they refer to. No constants are given. Whether binding was seen depends on the method and setting. Some results given as binding are weak or reduced against the parent protein; the word gives no strength. Each block holds one binder with its values, some of them ahead of it.
Biological target: recombinant Macaca fascicularis PD-L1-Fc (90251-CO2H, Sino Biological Inc.) (Macaca fascicularis) (UniProt G7PSE7)
Experiment: BLI (Octet RED384) competition: 75 nM Macaca fascicularis PD-L1-Fc pre-mixed with titrated antibody, binding to biotin-labelled PD-1-Fc on an SA sensor

Sequences of proteins named here, by UniProt entry; tags and fusion partners are left off. A change or cut given only in a name is not applied to a line headed by its entry. A line that says so, or that is headed by a name, gives the form on record, which may keep a tag or linker.
recombinant Macaca fascicularis PD-L1-Fc (90251-CO2H, Sino Biological Inc.) (G7PSE7, form named): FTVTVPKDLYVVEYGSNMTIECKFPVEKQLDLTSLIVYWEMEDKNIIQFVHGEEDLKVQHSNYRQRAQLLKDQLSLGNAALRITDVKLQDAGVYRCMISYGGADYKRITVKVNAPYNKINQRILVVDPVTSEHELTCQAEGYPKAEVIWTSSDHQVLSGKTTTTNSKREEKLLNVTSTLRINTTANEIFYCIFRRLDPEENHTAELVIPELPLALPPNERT

binding: binds
B1: anti-PD-L1 fully human antibody YN-002 (antibody, human IgG1, lambda, V domains shown)
VH: QVQLVQSGAEVRKPGSSVKVSCKASGGTFSSYAISWVRQAPGQGLEWMGRIIPILGIANYAQKFQGRVTITADKSTSTAYMELSSLRSEDTAVYYCARTMDGYSYGNFDYWGQGTLVTVSS
VL: QSALTQPASVSGSPGQSITISCTGTSSDVGGYNYVSWYQQHPGKAPKLLIYGNSNRPSGVPDRFSGSKSGTSASLAITGLQAEDEADYYCQSYDSSLSGSVFGGGTKLTVLG

binding: binds
B2: anti-PD-L1 fully human antibody YN-003 (antibody, human IgG1, lambda, V domains shown)
VH: B1 VH with R12K
VL: B1 VL with L49M, P61S, D62N, T71N, S72T, A76T, T78S
